Experimental data as given in PubChem BioAssay AID1347076 (National Center for Advancing Translational Sciences (NCATS), 2019).
The whole screen tested about 400,000 compounds, of which about 13,000 (3.2%) were called active. The shares of active, inactive and inconclusive entries below differ from those in the screen. The call rests on the fitted dose curve; in most records, active means well fitted cell-killing curve with a large enough effect; inconclusive means small, poorly fitted or top-dose-only effect, or effect the other way; inactive means flat fitted curve, though single readings scatter. Potencies beside an inconclusive call are fits to weak or partial responses and may not hold up.

Assay: qHTS assay for MDR1-selective chemotherapeutics: Primary screen using the drug-selected MDR subline cells KB-V1; further: nearly all actives have a fitted effect of over 60% in size
Conditions: KB-V1 MDR cells viability, CellTiter-Glo, 72 h; activity change, negative = cytotoxicity: at 46.1 µM (top of the series)
Summary of the method: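 Luminescent ATP read-out (CellTiter-Glo, 10 min) measures survival of drug-selected KB-V1 MDR cells after 72 h, 37 degrees C compound exposure. Medium: phenol-red-free DMEM, 10% FBS. Values from fitted concentration-response curves.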
On the % scale 0 is the no-effect control and ±100 the full control effect; potency means the concentration at half of the fitted maximal effect.

Structure (SMILES)	activity change, negative = cytotoxicity	Potency
Cc1ccnc(NS(=O)(=O)c2ccc(NC(=O)c3cc(=O)c4ccc(C)c(C)c4o3)cc2)n1	inactive: 0%	
COC(=O)c1ccc(CSc2nc3c([nH]c4ccccc43)c(=O)n2-c2cccc(OC)c2)o1		inconclusive: 29.1 µM [cytotoxic, single point]
CC1CCCN(S(=O)(=O)c2cccc(C(=O)NCc3ccco3)c2)C1 (stereo not drawn)		inconclusive: 36.6 µM [cytotoxic, partial curve, poor fit]
CCOC(=O)N1CCN(c2cc(C)c(C(C)=O)cc2F)CC1	inactive: 3.8%	
COc1ccc(/C=N/NC(=O)c2ccncc2)cc1OC		inconclusive: 0.082 µM [rising, full curve]
CC(=O)Nc1ccc(S(=O)(=O)N2CCN(c3cc(C)ccc3C)CC2)cc1		inconclusive: 25.9 µM [cytotoxic, partial curve, poor fit]
CCCOc1ccc(F)cc1-c1cc(C(=O)Nc2ccccc2)[nH]n1	inactive: -2.37%	
CCOc1ccc(NS(=O)(=O)c2ccc(C(=O)NNC(=O)c3ccccc3O)cc2)cc1		inconclusive: 18.4 µM [cytotoxic, single point]
CCCCNCCOCCOc1ccc(Cl)cc1Br		inconclusive: 32.6 µM [cytotoxic, single point]
COC(=O)C1=C(C)NC(=O)NC1c1ccc(-c2ccccc2Cl)o1 (stereo not drawn)		inconclusive: 8.2 µM [cytotoxic, partial curve]
COc1ccccc1CNC(=O)COc1cc2c(c3oc(=O)cc(C)c13)CCC(C)(C)O2		active: 16.4 µM
Cc1nn(Cc2ccccc2)c(C)c1NC(=O)c1cc(C(C)C)on1	inactive: -28.6%	
c1ccc(CSc2nnc(-c3ccco3)n2Cc2ccco2)cc1		active: 20.6 µM
CC1=[N+](C)c2c(ccc3cccnc23)C1(C)C		inconclusive: 8.2 µM [cytotoxic, partial curve]
O=C(Nc1ccccc1N1CCCCC1)c1cc(S(=O)(=O)N2CCOCC2)ccc1F		inconclusive: 9.2 µM [cytotoxic, partial curve]
Cn1c(NCc2cccnc2)nc2cc(-c3ccc(F)cc3)sc2c1=O	inactive: -1.46%	
Cc1ccc(C(=O)NC(=S)Nc2ccc(-c3ccc(CO)o3)cc2)cc1	inactive: 0%	
CN1CCc2c(sc(NC(=O)Cc3ccc(F)cc3)c2C(N)=O)C1	inactive: 32.3%	
Cc1cccn2c(=O)c(C=O)c(NCc3ccccc3)nc12		inconclusive: 18.4 µM [cytotoxic, single point]
COc1ccc(Cl)cc1NC(=O)c1c(C(=O)Nc2cccc(C)c2C)sc2nc(C)cc(=O)n12		inconclusive: 3.26 µM [rising, partial curve, poor fit]
CC(=O)Nc1ccc(NS(=O)(=O)c2ccc(-c3cnc(C4CC4)o3)cc2)cc1	inactive: -5.04%	
Cc1ccc(C(=O)c2cn(Cc3ccc(F)cc3)c3nc(C)ccc3c2=O)cc1	inactive: -4.14%	
COCCCNC(=O)Cn1c(=O)n(-c2cccc(C)c2)c(=O)c2c3c(sc21)CN(C(C)=O)CC3	inactive: 6.33%	
CCOC(=O)Cc1csc(NC(=O)Cc2ccccc2)n1		inconclusive: 29.1 µM [rising, single point]
O=C1OC(c2ccc(O)cc2)(c2ccc(O)cc2)c2ccccc21	inactive: -0.664%	

Structure (SMILES)	activity change, negative = cytotoxicity	Potency
COc1ccc(CNC(=O)c2c(N)n(CCCN3CCOCC3)c3nc4ccccc4nc23)cc1		inconclusive: 18.4 µM [cytotoxic, single point]
O=C(NC1CCCC1)C1C(c2ccc(C(F)(F)F)cc2)=Nc2ccccc2N1C(=O)c1cc2ccccc2[nH]1 (stereo not drawn)		active: 13 µM
O=C(c1ccccc1)N1CCOC(O)(c2ccccc2)C1c1ccccc1 (stereo not drawn)		inconclusive: 29.1 µM [cytotoxic, partial curve, poor fit]
O=C1CCCC2=C1C1(CCCCC1)N=C(Nc1nc3ccccc3s1)N2	inactive: -14.4%	
COc1cccc(CN(C)CC(O)COc2cc(Cl)ccc2Cl)c1 (stereo not drawn)	inactive: 5.08%	
COc1ccc(C(=O)NNC2=Nc3cccc4cccc2c34)cc1		inconclusive: 8.2 µM [cytotoxic, partial curve, poor fit]
O=C1N(Cc2ccccc2)c2ccc(Cl)cc2C12OCCO2		inconclusive: 18.4 µM [rising, single point]
COC(=O)c1cc(NC(=O)c2c(Cl)cnn2C)cc(C(=O)OC)c1		active: 14.6 µM
COc1ccccc1CNc1nc(-c2ccco2)nn1C(=O)c1ccccc1[N+](=O)[O-]	inactive: -8.17%	
COc1cccc(-c2cccc(NC(=O)C3CCN(Cc4nccs4)CC3)c2)c1		inconclusive: 4.11 µM [cytotoxic, partial curve, poor fit]
CCc1ccc(NC(=O)c2ccc(Cn3cc([N+](=O)[O-])cn3)cc2)cc1		active: 4.61 µM
CN1CCN(/C=N/c2c(C#N)cnn2Cc2ccccc2)CC1		active: 10.3 µM
Cc1cc(=O)n2c(C(=O)Nc3ccc(C)c(C)c3)c(C(=O)Nc3ccccc3)sc2n1	inconclusive: -48.7%	
CCOC(=O)c1cc(-c2ccccc2)sc1NC(=O)c1cc(OC)c(OC)c(OC)c1		inconclusive: 5.8 µM [cytotoxic, full curve, poor fit]
O=C(/C=C/c1ccco1)Nc1cc(Cl)ccc1C(=O)O		inconclusive: 20.6 µM [cytotoxic, single point]
O=c1c([N+](=O)[O-])c(NC2CCCCC2)c2ccccc2n1-c1ccccc1	inactive: -17.6%	
C#Cc1ccc([C@H]2C=C(C(=O)NCc3nc4ccccc4[nH]3)O[C@@H](OCC)[C@@H]2CCCO)cc1		inconclusive: 18.4 µM [rising, single point]
COc1ccc(CCN(C)C(=O)COc2cccc(-n3cnnn3)c2)cc1OC	inactive: 10.6%	
CCc1cccc(C)c1NC(=O)C1CCCN(S(=O)(=O)c2cccc3nsnc23)C1 (stereo not drawn)	inactive: 20.1%	
Cc1ccc(NC(=O)C(C)Sc2nnc3n2CCCCC3)cc1S(=O)(=O)N1CCOCC1 (stereo not drawn)	inactive: 16.6%	
Cc1ccc(S(=O)(=O)N[C@H](C(=O)OCn2nnc3ccccc3c2=O)C(C)C)cc1		inconclusive: 1.3 µM [cytotoxic, full curve]
CS(=O)(=O)c1ccccc1-c1nnc(NC(=O)C2=COCCO2)o1	inactive: 13.2%	
COc1cc(NC(=O)c2cccc(Cl)c2)c(OC)cc1NC(=O)CN1CCCCC1	inactive: 16.7%	
Clc1ccc(-c2ccc(SCc3ccccn3)nn2)cc1	inactive: -7.24%	
O=C(CN(C(=O)c1cccc([N+](=O)[O-])c1)C1CCCCC1)Nc1ccc(Cl)c([N+](=O)[O-])c1		inconclusive: 18.4 µM [cytotoxic, single point]

Structure (SMILES)	activity change, negative = cytotoxicity	Potency
O=C(NCCC1CCCCN1S(=O)(=O)c1cccs1)C(=O)Nc1ccc(F)cc1 (stereo not drawn)		inconclusive: 18.4 µM [cytotoxic, single point]
COc1ccc(C(NC(=O)C2CCCCC2)c2c(O)ccc3ccccc23)cc1 (stereo not drawn)		inconclusive: 32.6 µM [cytotoxic, partial curve, poor fit]
Nn1c(SCC(=O)NC2CCCCCC2)nnc1-c1ccco1	inactive: 24.6%	
O=C1c2ccccc2C(=O)c2[nH]c(=O)[nH]c21		active: 10.3 µM
CC#CC#Cc1cccc(=O)o1		inconclusive: 18.4 µM [cytotoxic, single point]
CC(O)(c1ccccc1)C(c1ccccc1)C1CCCCN1 (stereo not drawn)		inconclusive: 3.66 µM [cytotoxic, full curve]
OCC1(CCOc2ccccc2)CCN(Cc2cn[nH]c2-c2ccccc2)CC1	inconclusive: -7.45%	
c1ccc2c(c1)CC1(CCCCC1)n1nnnc1-2		inconclusive: 23.1 µM [cytotoxic, single point]
O=C(CSc1nc(-c2ccco2)nc2cc(=O)[nH]n12)Nc1ccccc1Cl		inconclusive: 18.4 µM [rising, single point]
Cc1cn(C2CC(OC(=O)C(C)C)C(CO)O2)c(=O)[nH]c1=O (stereo not drawn)		inconclusive: 29.1 µM [rising, single point]
CCOC(=O)c1ccc(NC(=O)NCCc2cnc[nH]2)cc1		inconclusive: 29.1 µM [rising, single point]
CC1CCN(C(=O)COc2cccc3c2CCN(C)C3=O)CC1		inconclusive: 16.4 µM [cytotoxic, single point]
CCOc1cc(C(=O)NC(C)CCc2ccccc2)cc(OCC)c1OCC (stereo not drawn)	inactive: 3.69%	
CCOC(=O)c1cnc(-n2nc(C)cc2C)nc1NCCc1ccccc1		active: 0.731 µM
Cc1ccc(Cl)cc1N1CCN(C(=O)C2CCC(=O)N(C3CCCCCC3)C2)CC1 (stereo not drawn)		inconclusive: 29.1 µM [cytotoxic, partial curve, poor fit]
CCc1cc(C(=O)N(CC)CC(=O)Nc2ccc(OC)cc2)sc1C		active: 18.4 µM
S=C(NCCC(c1ccccc1)c1ccccc1)Nc1ccc(Cl)cc1		inconclusive: 18.4 µM [cytotoxic, single point]
COc1ccc2c(c1)c(C(=O)CN1CCN(C(=O)c3ccco3)CC1)c(C)n2C		active: 23.1 µM
O=C(NCc1ccco1)c1ccc(Cl)c(S(=O)(=O)N2CCc3ccccc32)c1		inconclusive: 20.6 µM [cytotoxic, single point]
COCCNC(C(=O)Nc1ccc(C)cc1[N+](=O)[O-])c1ccccc1 (stereo not drawn)		inconclusive: 7.31 µM [cytotoxic, partial curve, poor fit]
Cc1ccc(N(C(=O)Nc2ccccc2)C2=NCCC2)cc1		inconclusive: 29.1 µM [cytotoxic, single point]
Cc1nn(-c2nc3ccccc3[nH]2)c(N)c1-c1ccccc1		inconclusive: 29.1 µM [cytotoxic, single point]
Cc1cc2n(n1)SC(Nc1ccc(F)c(Cl)c1)N2 (stereo not drawn)		inconclusive: 14.6 µM [cytotoxic, partial curve]

Looked up one by one from the list above (five):
Structure (SMILES)	activity change, negative = cytotoxicity	Potency
COCCNC(C(=O)Nc1ccc(C)cc1[N+](=O)[O-])c1ccccc1 (stereo not drawn)		inconclusive: 7.31 µM [cytotoxic, partial curve, poor fit]
Cc1nn(-c2nc3ccccc3[nH]2)c(N)c1-c1ccccc1		inconclusive: 29.1 µM [cytotoxic, single point]
O=C(NCCC1CCCCN1S(=O)(=O)c1cccs1)C(=O)Nc1ccc(F)cc1 (stereo not drawn)		inconclusive: 18.4 µM [cytotoxic, single point]
CC1CCN(C(=O)COc2cccc3c2CCN(C)C3=O)CC1		inconclusive: 16.4 µM [cytotoxic, single point]
Cc1cn(C2CC(OC(=O)C(C)C)C(CO)O2)c(=O)[nH]c1=O (stereo not drawn)		inconclusive: 29.1 µM [rising, single point]
